# Measurements: patent US9180187B2, “Medicament for treating and/or preventing cancer” (TORAY INDUSTRIES, INC., priority 2010, dated 2015)
# Some results were stated once for a whole list of compounds, not compound by compound.
# T1: CAPRIN-1 protein (Homo sapiens, UniProt Q14444)
# T1 construct: examined for expression of CAPRIN-1 protein on the cell surface of each cell line; endogenous in cells; host or cells: human cancer cell lines (breast, glioma, renal, gastric, colorectal, lung, leukemia, lymphoma, cervix, bladder, esophageal), e.g. MDA-MB-157, T47D, MCF-7
# T1 sequence (Q14444 1-709): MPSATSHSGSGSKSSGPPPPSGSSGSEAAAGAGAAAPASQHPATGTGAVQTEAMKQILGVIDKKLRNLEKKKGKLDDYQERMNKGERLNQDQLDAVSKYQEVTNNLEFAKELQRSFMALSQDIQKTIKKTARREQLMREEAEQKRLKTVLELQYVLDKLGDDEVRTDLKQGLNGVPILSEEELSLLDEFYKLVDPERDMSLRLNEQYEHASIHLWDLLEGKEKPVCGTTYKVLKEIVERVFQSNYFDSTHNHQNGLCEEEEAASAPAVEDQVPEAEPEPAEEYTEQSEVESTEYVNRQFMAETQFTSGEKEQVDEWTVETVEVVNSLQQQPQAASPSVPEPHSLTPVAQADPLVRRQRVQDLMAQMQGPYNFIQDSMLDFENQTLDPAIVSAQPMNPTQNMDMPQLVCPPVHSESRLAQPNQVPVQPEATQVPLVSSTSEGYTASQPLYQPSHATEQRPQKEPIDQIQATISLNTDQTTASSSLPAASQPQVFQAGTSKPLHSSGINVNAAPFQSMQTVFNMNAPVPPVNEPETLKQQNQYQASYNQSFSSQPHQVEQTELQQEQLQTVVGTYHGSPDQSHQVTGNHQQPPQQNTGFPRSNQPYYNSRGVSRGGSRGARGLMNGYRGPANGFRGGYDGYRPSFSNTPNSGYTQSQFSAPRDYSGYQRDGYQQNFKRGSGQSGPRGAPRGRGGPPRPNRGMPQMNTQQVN
# B1: monoclonal antibody #9: mouse anti-CAPRIN-1 monoclonal antibody; heavy chain variable region SEQ ID NO: 103, light chain variable region SEQ ID NO: 107 (antibody, listed as Mus musculus, V domains shown)
# VH: PRASLGVSETLLCTSGFTFTDYYMSWVRQPPGKALEWLGFIRNKANGYTTEYSASVKGRFTISRDNSQSILYLQMNTLRAEDSATYYCARANWAFDYWGQGTTVTVSSK
# VL: SGDRVSLSCRASQSISNYLHWYQQKSHESPRLLIKYASQSISGIPSRFSGSGSGTDFTLSINSVETEDFGMYFCQQSNSWPYTFGGGTKLEIKQ
# Target: T1, CAPRIN-1 protein
# Experiment: Flow cytometry: CAPRIN-1 protein on the cell surface of various cancer cell lines using antibodies #2 and #9
# Format: binding
# Conditions: breast, glioma, renal, gastric, colorectal, lung, leukemia, lymphoma, uterine cervix, bladder and esophageal cancer cell lines; hybridoma supernatant; control: culture medium
molecule,measurement,value
B1,percentage of increase in mean fluorescence intensity over the control,≥ 20%
